No constants are given. Whether binding was seen depends on the method and setting. Binding seen in cells or lysates may run through a third protein. Some results given as binding are weak or reduced against the parent protein; the word gives no strength. Where a sequence is shown, tags or fusion partners need not be part of it.
What follows are binders tested against GST-Sip1 (full-length Sip1 fused to glutathione-S-transferase) (Schizosaccharomyces pombe) (UniProt O42998) (assay: pull-down; GST-Sip1 precipitated by glutathione beads after incubation with lysates of S. pombe cells expressing GFP-tagged AP-1 subunits or GFP alone; washed extensively, SDS-PAGE, immunoblot with anti-GFP or anti-GST; only the target purified).

By UniProt entry, the sequences of proteins in these tests, tags left out.
UniProt O42998: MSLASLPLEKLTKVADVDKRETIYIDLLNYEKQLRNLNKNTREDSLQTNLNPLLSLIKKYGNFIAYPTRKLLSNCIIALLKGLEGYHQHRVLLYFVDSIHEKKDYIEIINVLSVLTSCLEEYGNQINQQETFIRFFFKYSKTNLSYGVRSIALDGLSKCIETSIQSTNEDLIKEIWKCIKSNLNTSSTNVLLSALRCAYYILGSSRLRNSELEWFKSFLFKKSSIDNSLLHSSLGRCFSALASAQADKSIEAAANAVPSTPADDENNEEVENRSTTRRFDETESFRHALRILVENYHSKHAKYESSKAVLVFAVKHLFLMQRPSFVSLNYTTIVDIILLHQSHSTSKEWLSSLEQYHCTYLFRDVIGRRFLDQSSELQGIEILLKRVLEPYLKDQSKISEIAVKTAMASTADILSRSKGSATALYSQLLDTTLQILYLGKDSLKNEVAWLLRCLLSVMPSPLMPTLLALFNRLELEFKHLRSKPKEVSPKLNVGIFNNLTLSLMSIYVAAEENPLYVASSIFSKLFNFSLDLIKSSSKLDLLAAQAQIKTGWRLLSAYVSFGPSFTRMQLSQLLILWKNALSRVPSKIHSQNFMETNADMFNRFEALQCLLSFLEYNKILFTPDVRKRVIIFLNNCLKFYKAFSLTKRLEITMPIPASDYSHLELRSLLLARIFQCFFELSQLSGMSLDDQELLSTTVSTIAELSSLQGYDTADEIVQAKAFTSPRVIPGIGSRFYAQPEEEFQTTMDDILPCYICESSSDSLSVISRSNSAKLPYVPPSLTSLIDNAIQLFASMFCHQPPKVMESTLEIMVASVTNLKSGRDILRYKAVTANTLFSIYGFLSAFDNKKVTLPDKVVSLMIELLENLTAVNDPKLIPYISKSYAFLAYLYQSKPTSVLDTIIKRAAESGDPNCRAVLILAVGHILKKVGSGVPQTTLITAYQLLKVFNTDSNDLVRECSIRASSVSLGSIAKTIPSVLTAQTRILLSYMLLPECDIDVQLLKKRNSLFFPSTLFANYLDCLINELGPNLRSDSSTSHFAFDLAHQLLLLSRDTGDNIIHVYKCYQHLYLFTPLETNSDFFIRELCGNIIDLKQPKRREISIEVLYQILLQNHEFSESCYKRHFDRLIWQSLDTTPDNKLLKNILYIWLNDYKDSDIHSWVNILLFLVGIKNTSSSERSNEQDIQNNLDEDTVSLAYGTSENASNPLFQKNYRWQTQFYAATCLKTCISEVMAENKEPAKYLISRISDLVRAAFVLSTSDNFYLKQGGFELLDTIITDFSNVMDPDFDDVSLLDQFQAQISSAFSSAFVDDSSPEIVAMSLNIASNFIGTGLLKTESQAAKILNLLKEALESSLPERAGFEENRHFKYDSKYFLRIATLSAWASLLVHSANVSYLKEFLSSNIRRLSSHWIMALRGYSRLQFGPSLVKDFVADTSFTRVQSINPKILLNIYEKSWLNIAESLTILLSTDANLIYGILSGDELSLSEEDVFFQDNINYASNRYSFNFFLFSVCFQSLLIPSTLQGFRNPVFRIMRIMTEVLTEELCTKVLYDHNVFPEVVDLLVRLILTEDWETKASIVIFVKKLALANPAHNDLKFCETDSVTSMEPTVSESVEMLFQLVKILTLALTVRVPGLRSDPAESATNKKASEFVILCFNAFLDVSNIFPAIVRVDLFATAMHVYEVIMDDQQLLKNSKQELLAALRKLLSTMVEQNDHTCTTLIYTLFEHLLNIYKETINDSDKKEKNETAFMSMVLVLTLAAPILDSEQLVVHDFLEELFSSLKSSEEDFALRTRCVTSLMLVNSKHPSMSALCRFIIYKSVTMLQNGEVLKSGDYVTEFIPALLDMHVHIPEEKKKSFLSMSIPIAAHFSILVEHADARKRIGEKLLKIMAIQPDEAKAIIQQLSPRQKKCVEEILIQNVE

| binding | Binder |
| --- | --- |
| binds | GFP-Apl2 (protein, UniProt O43079 1-683) MVPKLFQSSRFKAFKKSETSELQKGLVSQYAYERIDAVKRTIAAMTVGKDVSSLFPDVLKNLATRDITLKKLVYLYLINYAKTHPDLCILAVNTFVKDSEEYNPTLRALAIRTMGCIRVNKIIGYLADPLRKALKDEHPYVRKAAAVCVVKMYDLDREYCASNGFIEQLQALVSDPNPVVVANAVRSLAEIHDQDPEKGYFNVVYTMTDRLMVALSECNEWGRITILNSLARFRTSDIKEAEYVCERVVPQFQHANSGVVLSAVKVIMVHIPLFSSDFTDFLYKKMAPPLLTLLSTDSEIQYVALRNINLILQKRPSIFDVKTRVFFCKYNDPLYIKMEKLKIITMLACDENINETISELRAYVSEVELEFVKQTIKCLGDVALKVPSVINDCISIFLEIYELNISYMVQEVTVVMETVLRKYPQKIDLLLPYLSRVIEELGDPRARSSMAWILGEFSHVIPTSSKLLSEMISTMADEDLQIQLALLTAVVKLSLMNGKGNDEELVQKVLNYAINQSSNQDLRDRAFAYQRLLTPENVRKAQKIVCCEKPSVSYNNNLPEALLDALLCEITTLASVYHKLPESFIGQGKFGADAIQRRAVEELNIEEANVHEAIEKGANVENLLDLDFTDPGATSASDSPITSAQPQSGSNSAMDLFMAFEAPSTNNAEPVKARSATDDLLGL |
| binds | Apm1-GFP (protein, UniProt Q9HFE5 1-426) MASAIFVLNLKGKVIISRDYRADIPMSVVEKFLPLKSEVEEEQGFSTPCLTHEGINYIYIHHNDVYLLALSKMNSDAMEMLVFLRKMADVFIDYFKELQEESIRDNFVLVYELLDEIMDFGFPQTTETKILQEYITQTSNTVKKHAPPPIAMTNAISWRSEGIHYRKNEVFLDVIESVNLIAAADGTVIQSEILGKVRLKCYLSGMPELRLGLNDKVLFEAAGRTIKGNTVEMEDVKFHQCVRLARFENDRTISFIPPDGEFDLMSYRMSSNVRPLIWVECESIVHSGSRIEFMVKAKAQFKKRCIANNVQIIIPVPEDADSPRFQTSNGHVQYAPEQAAMVWNIKKFAGGKEFFMRAEMGLPSVKNEDIQVQKKRPVQLKFAIPYFTTSGIQVRYLKITEPKLNYHAMPWVRYVTQNGTEYSIRQ |
| binds | GFP-Aps1 (protein, UniProt Q9P7N2 1-162) MSIKFFLLVSRQGKVRLAKWFNTLSIKERAKIIRDVSSLVITRKPKMCNFVEYKGEKIVYRRYASLFFVCGIEQDDNELIILEVIHKFVECLDKYFGNVCELDLIFNFEKAYYVMEELLLAGELQESSKTNVLSAVLAGDAESEADAQQDSLQKLVGSVKKR |
| binds | Apl4-GFP (protein, UniProt Q9UU81 1-836) MSSLKSFIKAVRASKTTAEEHTTILKESAQIRKNIRQGSNDMRMRRKNVAKLLYLFLLGEPTHFGQIECLKLLSSSRFMDKRLGYLAAMLLLDENQEVLTLLTNSLQNDLKSRDKFIVGLALSAFGNVAGPELARDLSNDIAELCSNHHNYISKKAVLCALRVIQKEPDLESLYIEKTDELLHSKSHGVLMAALAFAISACKINPSLISRFESQADDLIYRIRQLSTSTYSSEHNIGNISDPFLQVKILQFLSILGQNNPKIYDKMSDLLAQVCTNTDSSRNAGNAILYQAVRTILDLNSDSSLRVLGVNILAKFLGNRDNNTRYVALNMLKLVVNSEENAVQRHRSTILACLNDVDSSIQSRALELSTFLVNEANVRFMVRELLSFLDNVSDELRGSTAQYITEVTNAFAPNKRWHFDTLLRVFKSAGNFVSESTLSTFLRLIASAPELHEYAVVKLYAALKEDVSQEALTLSAFWVIGEYGQMLLSPTMNFDDDQTLPHSVSESDIVDIIEEVFNSVEASRYIIVQYGLFALTKLSARLGSSSTASRIDKIIYSYKRNKNTEVQQRSVEFHLILNDSKLSKTILEPTPAPLPPPRTTPYQNAEQKLKANKHVEKRVQESNELLDLIGLTTPSVAEPLETPVDEMTQSPQSSLSRAPSTSKKSHFEDILGLFASPAPSAQPVDSLASSFASLDFNASASQPSNNLSLLSSIPSTSKSYPPIVVFDKHDVTLTLVPSKEESTKTAVIEAKFKNKNPMTRVEKIHLEVAVPKSQKLKIQPLRTTSMEPGGETSQTLRVHGPSGSQVKLRLRISVVRQGGSNTLDQVDFGKLPSDLLQ |

— publication PMC3444471
